“Also recorded” adds a separate entry of the source. At least one compound was matched to its structure with a doubt left.
Key:
Ag-specific CD8 T cells = assay: Vaccine model, Ag-specific CD8 T cell numbers in peripheral blood day 6 post immunization; assay type: in vivo, mice; conditions: for number of Ag-specific CD8 T cells (OVA tet): Experiment 1, C57BI/6 mice
spleen monocytes = assay type: in vivo, hVISTA KI mice; conditions: Experiment 3; Dex 2 mg/Kg i.p. 2 h before isolation; LPS 100 ng/ml
[1] = system: peritoneal resident macrophages; assay: In vivo treatment / ex vivo activation of peritoneal resident macrophages (TNFα, IL-6); set-up: species or system mice
OVA-asthma mouse model = assay: OVA-asthma mouse model; assay type: in vivo, mice
FKBP5 [2] = assay: FKBP5 transcription in peritoneal resident macrophages and spleen monocytes after in vivo treatment; set-up: species or system mice; conditions: Dex 2 mg/Kg single i.p.
Procedure: ADCs were then injected from 17 h to 7 days before mouse euthanasia and cell isolation.
After euthanasia, mice were injected in the peritoneal cavity with 7 ml of PBS/0.5% BSA/2 mM EDTA. After a brief massage of the peritoneum, a small incision was performed and the peritoneal lavage collected. PRM were isolated using negative selection (Miltenyi kit, ref 130-110-434). Spleen were dissected and dissociated mechanically; monocytes were isolated using […] (Stem Cell, EasySep™ Mouse CD11 b Positive Selection Kit II).
Cell pellets from different tissues were resuspended in 0.4 ml RNeasy lysis buffer from RNeasy Plus Mini kit (Qiagen, PN: 74136) and homogenize with 20G needle for 5 times. RNA was isolated following manufacturer's instructions and RNA eluted in […] H2O (RNase/DNase free). RNA concentration was assessed on Nanodrop.
Reverse transcription was done using Taqman reverse transcription reagents (#N8080234) and following manufacturer's instructions. Quantitative Real-Time PCR was done using Taqman master mix 2× kit (#4369016) and Taqman primers for mouse FKBP5 (Mm00487401_m1), and mouse HPRT as housekeeping gene (Mm446968_m1) and run on a QuantStudio3 from Applied Biosystem. […]

FKBP5 [3] = assay: FKBP5 transcription in blood cells and splenocytes after in vivo treatment, C57BI/6 mice (no human VISTA target); conditions: Experiment 3; female C57BI/6 mice, absence of human VISTA target
[4] = system: LPS-induced cytokine release; assay: LPS-induced systemic inflammation, plasma cytokines post LPS; assay type: in vivo, mice
Procedure: In order to evaluate the ADC potential efficacy in auto-immune diseases, we used the short-term model of LPS-induced systemic inflammation. Intraperitoneal (i.p.) injection of lipopolysaccharide (LPS) is widely used as a model for acute immune response—both local and systemic—in mice.
Blood was collected at 2 or 4 h post LPS i.p. injection, and plasma isolated for cytokine analyses.
Mice were dosed at 0.5 mg/Kg.
For ADC-INVIVO-30 and 35, the Immune Monitoring Lab (IML, Shared Resources at Dartmouth-Hitchcock Norris Cotton Cancer Center) performed the analyses.
ELISAs were conducted following the manufacturer's included protocol.
Cytokine data are censored when below a […] threshold for IL-12p40 and/or […] threshold for TNF-α as it indicates a failed LPS injection.

FKBP5 [5] = assay: FKBP5 transcription in blood and spleen cells of hVISTA KI or C57BI/6 mice; assay type: in vivo; conditions: 2 h
FKBP5 [6] = assay: FKBP5 transcription in spleen and blood cells after in vivo treatment, hVISTA KI mice; conditions: Experiment 1

## C[C@@H]1C[C@H]2[C@@H]3CCC4=CC(=O)C=C[C@]4(C)[C@@]3(F)[C@@H](O)C[C@]2(C)[C@@]1(O)C(=O)CO [Dex, Dexamethasone]
Ag-specific CD8 T cells; Dex 0.2 mg/Kg 2 h pre-immunization
  number of Ag-specific CD8 T cells (OVA tet): clear reduction
Ag-specific CD8 T cells; Dex 2 mg/Kg 2 h pre-immunization
  number of Ag-specific CD8 T cells (OVA tet): dramatically decreased
Ag-specific CD8 T cells; Experiment 3, Dex 0.2 mg/Kg 2 h pre-vaccine
  reduction of Ag-specific (Ova Tet+ CD8 T cell) responses: lost efficacy
Ag-specific CD8 T cells; Experiment 3, Dex 2 mg/Kg 2 h pre-vaccine
  reduction of Ag-specific (Ova Tet+ CD8 T cell) responses: showed efficacy
Ag-specific CD8 T cells; Experiment 3, Dex 2 mg/Kg 7 days pre-immunization
  reduction of Ag-specific (Ova Tet+ CD8 T cell) responses: lost efficacy
Spleen monocytes
  ex vivo activation of monocytes, LPS induced cytokine responses: appeared to lose potency
[1]; Dex 2 mg/Kg i.p. 2 h before cell isolation, supernatant at 1 h
  ex vivo PRM activation (IL-6 and TNFa secretion): robustly shut down
[1]; Dex 2 mg/Kg injected on day −7
  control of the PRM cytokine response: lost all efficacy; also recorded: lost all potency
OVA-asthma mouse model; CCL11, CCL5, IL-5, IL-13 by ELISA
  cytokine levels in BAL: Neither INX201J nor Dex treatments had any impact on cytokine levels
OVA-asthma mouse model; Dex 2 mg/Kg daily or INX201J 10 mg/Kg x3 during OVA challenge
  IgE and OVA specific IgE in peripheral blood: Limited to no decreases
OVA-asthma mouse model; Part 1 of the study
  lung disease score (H&E stained sections): significantly reduced lung damage
FKBP5 [2]
  FKBP5 transcriptional impact at 24 h: gone by 24 h; also recorded: undetectable by 24 h
FKBP5 [2]; 4 h post treatment
  FKBP5 messenger RNA in PRM and spleen monocytes: dramatic increase
FKBP5 [3]
  FKBP5 transcription levels in VISTA-expressing blood cells or splenocytes: induced robust levels of FKBP5
[4]; Experiment 1, Dex 0.2 mg/Kg 2 h before LPS
  control of LPS-induced IL-12p40 release: only partial efficacy
[4]; Experiment 2, Dex 0.2 mg/Kg 2 h pre LPS
  control of LPS-induced cytokines (5-plex): reduced efficacy compared to INX201J
[4]; Experiment 2, Dex 2 mg/Kg injected 17 h pre LPS, compared to 2 h pre LPS
  control of LPS-induced cytokines (5-plex): loss in potency
FKBP5 [5]; Experiment 1, hVISTA KI male mice, Dex 2 mg/Kg i.p.
  FKBP5 induction in blood and spleen cells: robust FKBP5 inductions
FKBP5 [5]; Experiment 2, C57BI/6 male mice, Dex 2 mg/Kg i.p.
  FKBP5 induction in blood and spleen cells: robust and significant FKBP5 inductions
FKBP5 [5]; Experiment 3, Dex 2 mg/Kg i.p.
  FKBP5 induction in blood and spleen cells: robust and significant FKBP5 induction
FKBP5 [6]
  FKBP5 transcription levels in spleen and blood cells: induced robust levels of FKBP5
